PubChem BioAssay AID1259405 | NCATS – 2018
Purpose: 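Knock-downs that lift recombinant protein yield in hamster ovary cells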 (primary screen). System: Chinese hamster CHO-K1 ovary cells with stable secreted eGFP expression. Reagent: single siRNA against mouse genes, 0.8 pmol siRNA per well (2 µl of 400 nM stock). Time to read-out: 3 days. Measurement: 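Per-well intracellular GFP measured by laser scanning cytometry, plus viability from ATP luminescence, each relative to plate median of non-targeting control wells, in %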. Reading the numbers: GFP, % of control: higher = more GFP per well, higher productivity; viability (ATP), % of control: higher = more viable cells (more ATP). Active means: 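a knock-down is called active if GFP reaches 120% or more of non-targeting control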.
This is an unselected part of about 50,000 reagents tested. About 4,000 of them (8%) count as active. 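Mouse siRNA library applied to hamster cells; one well for each siRNA.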 The numbers tell different reagents against one gene apart.

The first 11 records, ahead of the listing:
| Gene | reagent | GFP, % of control | viability (ATP), % of control | outcome |
| --- | --- | --- | --- | --- |
| Saa3 | 1 | 82.8 | 81.3 | inactive |
| Saa3 | 2 | 75.3 | 65.8 | inactive |
| Saa3 | 3 | 38.2 | 69.5 | inactive |
| Baiap2l2 | 1 | 32.1 | 62.5 | inactive |
| Baiap2l2 | 2 | 63.4 | 57.6 | inactive |
| Baiap2l2 | 3 | 83.5 | 73.3 | inactive |
| Zfp324 | 1 | 97.3 | 68.4 | inactive |
| Zfp324 | 2 | 54.5 | 67.1 | inactive |
| Klhl23 | 1 | 61.7 | 76.4 | inactive |
| Klhl23 | 2 | 81.6 | 80.5 | inactive |
| Klhl23 | 3 | 190 | 178 | active |

The listing, from the first entry:
| Gene | reagent | GFP, % of control | viability (ATP), % of control | outcome |
| --- | --- | --- | --- | --- |
| Saa3 | 1 | 82.8 | 81.3 | inactive |
| Saa3 | 2 | 75.3 | 65.8 | inactive |
| Saa3 | 3 | 38.2 | 69.5 | inactive |
| Baiap2l2 | 1 | 32.1 | 62.5 | inactive |
| Baiap2l2 | 2 | 63.4 | 57.6 | inactive |
| Baiap2l2 | 3 | 83.5 | 73.3 | inactive |
| Zfp324 | 1 | 97.3 | 68.4 | inactive |
| Zfp324 | 2 | 54.5 | 67.1 | inactive |
| Klhl23 | 1 | 61.7 | 76.4 | inactive |
| Klhl23 | 2 | 81.6 | 80.5 | inactive |
| Klhl23 | 3 | 190 | 178 | active |
| 9930022D16Rik | 1 | 67.1 | 56.8 | inactive |
| 9930022D16Rik | 2 | 61.4 | 52.8 | inactive |
| 9930022D16Rik | 3 | 82.1 | 93.1 | inactive |
| Podnl1 | 1 | 57.2 | 42.4 | inactive |
| Podnl1 | 2 | 65.6 | 79.7 | inactive |
| Podnl1 | 3 | 37.7 | 83.4 | inactive |
| Kdr | 1 | 76.6 | 55 | inactive |
| Sntb2 | 1 | 77.8 | 74.7 | inactive |
| Sntb2 | 2 | 43.3 | 49.9 | inactive |
| Rasa1 | 1 | 111 | 93.7 | inactive |
| Rasa1 | 2 | 77.2 | 64.9 | inactive |
| Rasa1 | 3 | 70.1 | 57.8 | inactive |
| Dmkn | 1 | 112 | 84.8 | inactive |
| Dmkn | 2 | 78.9 | 78.8 | inactive |
| Dmkn | 3 | 108 | 101 | inactive |
| Dnah5 | 1 | 94.6 | 77.6 | inactive |
| Dnah5 | 2 | 60 | 82.4 | inactive |
| Vmn2r-ps105 | 1 | 87.6 | 109 | inactive |
| Vmn2r-ps105 | 2 | 159 | 69.4 | active |
| Vmn2r-ps105 | 3 | 103 | 110 | inactive |
| Kel | 1 | 85.7 | 104 | inactive |
| Kel | 2 | 72.6 | 73.6 | inactive |
| Kel | 3 | 70.7 | 54.5 | inactive |
| Trmt9b | 1 | 98.8 | 70.2 | inactive |
| Trmt9b | 2 | 85.3 | 91 | inactive |
| Trmt9b | 3 | 135 | 124 | active |
| Dapk1 | 1 | 95.8 | 83.9 | inactive |
| Pramel6 | 1 | 89.2 | 68.8 | inactive |
| Pramel6 | 2 | 78.4 | 84.6 | inactive |
| Pramel6 | 3 | 61.3 | 50.9 | inactive |
| Lrpprc | 1 | 70.3 | 118 | inactive |
| Lrpprc | 2 | 83 | 81.2 | inactive |
| Lrpprc | 3 | 54.2 | 72.6 | inactive |
| Crcp | 1 | 195 | 92.1 | active |
| Crcp | 2 | 115 | 88.6 | inactive |
| Crcp | 3 | 72.7 | 69.7 | inactive |
| Ap2a1 | 1 | 152 | 121 | active |
| Ap2a1 | 2 | 92.6 | 66.8 | inactive |
| Ap2a1 | 3 | 92.6 | 72.6 | inactive |
| Sox15 | 1 | 69.1 | 90.6 | inactive |
| Sox15 | 2 | 93.7 | 81.4 | inactive |
| Sox15 | 3 | 85.5 | 110 | inactive |
| Slc25a13 | 1 | 104 | 105 | inactive |
| Slc25a13 | 2 | 114 | 85.4 | inactive |
| Slc25a13 | 3 | 107 | 97.7 | inactive |
| Rps28 | 1 | 57.7 | 57.3 | inactive |
| Rps28 | 2 | 133 | 82 | active |
| Rps28 | 3 | 49.9 | 27.1 | inactive |
| Or2y7 | 1 | 54.2 | 82.7 | inactive |
| Or2y7 | 2 | 59.4 | 73.5 | inactive |
| Or2y7 | 3 | 62.2 | 91.7 | inactive |
| Fam110c | 1 | 75 | 60.2 | inactive |
| Fam110c | 2 | 80.5 | 81.9 | inactive |
| Fam110c | 3 | 61.2 | 65.5 | inactive |
| Pcdh12 | 1 | 86.8 | 82.1 | inactive |
| Pcdh12 | 2 | 59.4 | 61.4 | inactive |
| Eya2 | 1 | 88.2 | 69.8 | inactive |
| Eya2 | 2 | 91.3 | 103 | inactive |
| Eya2 | 3 | 108 | 65.9 | inactive |
| Nectin1 | 1 | 108 | 118 | inactive |
| Nectin1 | 2 | 102 | 96.4 | inactive |
| Slc6a6 | 1 | 82.4 | 83.4 | inactive |
| Slc6a6 | 2 | 109 | 84.3 | inactive |
| Slc6a6 | 3 | 93.9 | 68.3 | inactive |
| Sumo3 | 1 | 71.2 | 48.2 | inactive |
| Sumo3 | 2 | 71.4 | 75.1 | inactive |
| Sumo3 | 3 | 96 | 95.1 | inactive |
| 3300002I08Rik | 1 | 49.8 | 58.1 | inactive |
| 3300002I08Rik | 2 | 59.7 | 63.7 | inactive |
| 3300002I08Rik | 3 | 98.9 | 99.5 | inactive |
| Eif4g3 | 1 | 74.1 | 101 | inactive |
| Eif4g3 | 2 | 66.5 | 52.6 | inactive |
| Eif4g3 | 3 | 90.2 | 74.7 | inactive |
| Nudc | 1 | 134 | 84.6 | active |
| Nudc | 2 | 72.1 | 73.2 | inactive |
| Nudc | 3 | 92.9 | 52.9 | inactive |
| Or10a48 | 1 | 24.5 | 22.4 | inactive |
| Or10a48 | 2 | 110 | 118 | inactive |
| Or10a48 | 3 | 52.2 | 56.1 | inactive |
| Zbtb26 | 1 | 92.9 | 100 | inactive |
| Zbtb26 | 2 | 87.9 | 73.8 | inactive |
| Sprr2k | 1 | 129 | 112 | active |
| Sprr2k | 2 | 94.9 | 85.7 | inactive |
| Gtpbp1 | 1 | 82.7 | 69.8 | inactive |
| Gtpbp1 | 2 | 62 | 32.5 | inactive |
| Gtpbp1 | 3 | 87.4 | 65.3 | inactive |
| Fbxl7 | 1 | 116 | 108 | inactive |
| Fbxl7 | 2 | 119 | 80.2 | inactive |
| Fbxl7 | 3 | 118 | 78.1 | inactive |
| Spmap2l | 1 | 88.1 | 66.3 | inactive |
| Spmap2l | 2 | 129 | 62.8 | active |
| Spmap2l | 3 | 74.1 | 97.7 | inactive |
| Tmed6 | 1 | 81.2 | 77.1 | inactive |
| Tmed6 | 2 | 91 | 94.1 | inactive |
| Tmed6 | 3 | 73.9 | 75.7 | inactive |
| Or8d4 | 1 | 35.3 | 29.5 | inactive |
| Or8d4 | 2 | 78.9 | 59.7 | inactive |
| Or8d4 | 3 | 71.1 | 84 | inactive |
